Experimental findings from publication PMC7415817 are described below.

Amino acid sequences for entries named in this document (tags omitted).
UniProt Q93074: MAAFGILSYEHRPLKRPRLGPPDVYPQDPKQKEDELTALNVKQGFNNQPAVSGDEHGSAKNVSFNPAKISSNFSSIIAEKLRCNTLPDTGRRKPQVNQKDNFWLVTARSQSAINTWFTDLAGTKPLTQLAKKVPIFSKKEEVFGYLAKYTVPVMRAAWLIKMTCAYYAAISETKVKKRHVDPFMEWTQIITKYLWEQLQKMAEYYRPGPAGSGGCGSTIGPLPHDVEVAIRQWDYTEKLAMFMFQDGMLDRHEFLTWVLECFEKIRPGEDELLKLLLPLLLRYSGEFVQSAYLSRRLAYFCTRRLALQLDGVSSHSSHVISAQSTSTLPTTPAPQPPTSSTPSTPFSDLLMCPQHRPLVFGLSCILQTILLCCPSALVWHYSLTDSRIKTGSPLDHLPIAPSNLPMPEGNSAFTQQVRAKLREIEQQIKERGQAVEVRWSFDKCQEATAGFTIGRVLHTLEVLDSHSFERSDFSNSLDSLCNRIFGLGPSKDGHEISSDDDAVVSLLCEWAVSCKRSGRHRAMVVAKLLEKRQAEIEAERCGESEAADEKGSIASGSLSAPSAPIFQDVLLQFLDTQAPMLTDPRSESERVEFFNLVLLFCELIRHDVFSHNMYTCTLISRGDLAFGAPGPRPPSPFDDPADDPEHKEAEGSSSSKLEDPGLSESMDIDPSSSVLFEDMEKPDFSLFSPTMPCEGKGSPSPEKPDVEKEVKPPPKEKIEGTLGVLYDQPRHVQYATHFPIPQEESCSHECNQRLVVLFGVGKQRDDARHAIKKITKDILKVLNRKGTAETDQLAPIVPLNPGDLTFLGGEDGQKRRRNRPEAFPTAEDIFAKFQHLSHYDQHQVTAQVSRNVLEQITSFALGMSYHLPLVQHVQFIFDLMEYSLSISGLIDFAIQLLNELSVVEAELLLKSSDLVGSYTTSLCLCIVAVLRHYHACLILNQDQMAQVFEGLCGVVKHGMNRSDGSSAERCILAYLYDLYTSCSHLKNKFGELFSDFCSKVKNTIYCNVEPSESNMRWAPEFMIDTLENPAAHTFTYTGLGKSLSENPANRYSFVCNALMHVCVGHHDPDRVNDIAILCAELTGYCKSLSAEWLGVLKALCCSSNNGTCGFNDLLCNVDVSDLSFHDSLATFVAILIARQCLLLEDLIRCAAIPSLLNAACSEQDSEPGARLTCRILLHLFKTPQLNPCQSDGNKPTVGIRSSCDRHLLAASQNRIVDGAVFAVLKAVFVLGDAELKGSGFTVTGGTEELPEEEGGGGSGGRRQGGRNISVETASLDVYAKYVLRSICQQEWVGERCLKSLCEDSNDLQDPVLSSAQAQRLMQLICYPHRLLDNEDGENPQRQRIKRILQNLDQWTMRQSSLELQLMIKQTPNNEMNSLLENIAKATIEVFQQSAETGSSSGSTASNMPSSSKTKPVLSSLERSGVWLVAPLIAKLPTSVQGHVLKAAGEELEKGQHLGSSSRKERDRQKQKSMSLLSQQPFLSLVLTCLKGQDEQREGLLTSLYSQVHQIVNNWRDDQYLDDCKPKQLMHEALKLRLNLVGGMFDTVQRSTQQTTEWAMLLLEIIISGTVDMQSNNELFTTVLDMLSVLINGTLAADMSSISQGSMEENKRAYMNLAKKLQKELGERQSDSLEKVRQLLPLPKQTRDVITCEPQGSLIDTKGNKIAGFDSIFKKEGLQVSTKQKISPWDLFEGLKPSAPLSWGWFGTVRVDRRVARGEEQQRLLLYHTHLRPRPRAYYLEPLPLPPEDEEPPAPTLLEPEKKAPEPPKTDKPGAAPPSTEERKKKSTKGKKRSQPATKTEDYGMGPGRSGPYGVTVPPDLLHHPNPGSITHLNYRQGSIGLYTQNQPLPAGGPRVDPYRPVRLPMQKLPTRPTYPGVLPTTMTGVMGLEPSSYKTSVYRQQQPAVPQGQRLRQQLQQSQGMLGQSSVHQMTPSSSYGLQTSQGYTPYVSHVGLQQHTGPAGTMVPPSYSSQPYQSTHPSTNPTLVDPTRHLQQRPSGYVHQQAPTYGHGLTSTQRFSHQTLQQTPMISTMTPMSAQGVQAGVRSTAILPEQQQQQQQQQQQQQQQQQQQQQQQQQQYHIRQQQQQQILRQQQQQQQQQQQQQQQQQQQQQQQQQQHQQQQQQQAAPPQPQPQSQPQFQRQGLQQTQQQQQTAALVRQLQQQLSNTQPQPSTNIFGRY
UniProt P24863: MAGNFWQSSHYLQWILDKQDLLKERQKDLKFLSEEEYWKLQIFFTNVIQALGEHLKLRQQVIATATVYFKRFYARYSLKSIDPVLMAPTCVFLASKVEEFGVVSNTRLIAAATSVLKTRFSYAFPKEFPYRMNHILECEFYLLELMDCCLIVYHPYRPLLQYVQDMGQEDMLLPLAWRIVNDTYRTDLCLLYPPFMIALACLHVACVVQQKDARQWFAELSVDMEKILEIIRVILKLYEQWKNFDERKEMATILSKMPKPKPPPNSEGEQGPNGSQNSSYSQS
UniProt Q15648: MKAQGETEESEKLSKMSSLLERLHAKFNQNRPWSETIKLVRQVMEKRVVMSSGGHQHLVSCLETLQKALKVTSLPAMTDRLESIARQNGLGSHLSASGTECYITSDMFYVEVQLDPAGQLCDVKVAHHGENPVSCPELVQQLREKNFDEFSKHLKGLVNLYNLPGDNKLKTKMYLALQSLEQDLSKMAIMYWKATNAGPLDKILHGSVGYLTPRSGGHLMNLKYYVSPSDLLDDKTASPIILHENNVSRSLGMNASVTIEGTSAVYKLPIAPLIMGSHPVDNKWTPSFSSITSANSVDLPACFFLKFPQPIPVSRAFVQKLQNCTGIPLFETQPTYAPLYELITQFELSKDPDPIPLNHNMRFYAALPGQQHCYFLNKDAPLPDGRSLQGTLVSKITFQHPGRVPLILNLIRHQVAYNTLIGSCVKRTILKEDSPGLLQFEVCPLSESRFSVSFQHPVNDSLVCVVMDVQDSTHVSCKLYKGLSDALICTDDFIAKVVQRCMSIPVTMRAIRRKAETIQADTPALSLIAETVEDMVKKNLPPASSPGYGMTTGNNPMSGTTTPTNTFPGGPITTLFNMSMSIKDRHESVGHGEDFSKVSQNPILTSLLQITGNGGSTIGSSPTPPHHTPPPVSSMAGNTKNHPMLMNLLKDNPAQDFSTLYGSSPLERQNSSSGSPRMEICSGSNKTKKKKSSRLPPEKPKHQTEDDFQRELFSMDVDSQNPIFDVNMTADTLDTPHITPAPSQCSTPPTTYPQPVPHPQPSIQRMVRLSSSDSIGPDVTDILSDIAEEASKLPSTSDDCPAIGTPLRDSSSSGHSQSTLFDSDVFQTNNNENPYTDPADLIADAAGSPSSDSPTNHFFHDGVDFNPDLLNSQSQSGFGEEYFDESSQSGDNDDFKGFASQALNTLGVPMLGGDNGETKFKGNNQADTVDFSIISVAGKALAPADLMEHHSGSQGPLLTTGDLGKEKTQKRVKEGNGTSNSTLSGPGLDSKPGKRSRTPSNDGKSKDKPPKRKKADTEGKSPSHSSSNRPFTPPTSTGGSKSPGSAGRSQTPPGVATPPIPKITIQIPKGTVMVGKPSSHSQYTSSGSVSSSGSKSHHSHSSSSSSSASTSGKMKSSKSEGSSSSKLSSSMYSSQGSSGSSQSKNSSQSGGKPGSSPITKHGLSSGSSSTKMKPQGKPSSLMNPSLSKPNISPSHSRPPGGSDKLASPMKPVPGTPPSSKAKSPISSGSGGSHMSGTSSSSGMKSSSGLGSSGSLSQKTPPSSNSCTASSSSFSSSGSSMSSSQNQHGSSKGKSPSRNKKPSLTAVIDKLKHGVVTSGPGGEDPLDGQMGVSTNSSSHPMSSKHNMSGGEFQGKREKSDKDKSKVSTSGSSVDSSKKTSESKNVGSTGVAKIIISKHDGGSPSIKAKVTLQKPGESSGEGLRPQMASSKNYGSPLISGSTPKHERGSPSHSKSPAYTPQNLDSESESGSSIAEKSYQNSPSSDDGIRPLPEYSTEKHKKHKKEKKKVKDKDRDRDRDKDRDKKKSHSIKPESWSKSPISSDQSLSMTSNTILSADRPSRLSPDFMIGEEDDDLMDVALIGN
UniProt Q09472: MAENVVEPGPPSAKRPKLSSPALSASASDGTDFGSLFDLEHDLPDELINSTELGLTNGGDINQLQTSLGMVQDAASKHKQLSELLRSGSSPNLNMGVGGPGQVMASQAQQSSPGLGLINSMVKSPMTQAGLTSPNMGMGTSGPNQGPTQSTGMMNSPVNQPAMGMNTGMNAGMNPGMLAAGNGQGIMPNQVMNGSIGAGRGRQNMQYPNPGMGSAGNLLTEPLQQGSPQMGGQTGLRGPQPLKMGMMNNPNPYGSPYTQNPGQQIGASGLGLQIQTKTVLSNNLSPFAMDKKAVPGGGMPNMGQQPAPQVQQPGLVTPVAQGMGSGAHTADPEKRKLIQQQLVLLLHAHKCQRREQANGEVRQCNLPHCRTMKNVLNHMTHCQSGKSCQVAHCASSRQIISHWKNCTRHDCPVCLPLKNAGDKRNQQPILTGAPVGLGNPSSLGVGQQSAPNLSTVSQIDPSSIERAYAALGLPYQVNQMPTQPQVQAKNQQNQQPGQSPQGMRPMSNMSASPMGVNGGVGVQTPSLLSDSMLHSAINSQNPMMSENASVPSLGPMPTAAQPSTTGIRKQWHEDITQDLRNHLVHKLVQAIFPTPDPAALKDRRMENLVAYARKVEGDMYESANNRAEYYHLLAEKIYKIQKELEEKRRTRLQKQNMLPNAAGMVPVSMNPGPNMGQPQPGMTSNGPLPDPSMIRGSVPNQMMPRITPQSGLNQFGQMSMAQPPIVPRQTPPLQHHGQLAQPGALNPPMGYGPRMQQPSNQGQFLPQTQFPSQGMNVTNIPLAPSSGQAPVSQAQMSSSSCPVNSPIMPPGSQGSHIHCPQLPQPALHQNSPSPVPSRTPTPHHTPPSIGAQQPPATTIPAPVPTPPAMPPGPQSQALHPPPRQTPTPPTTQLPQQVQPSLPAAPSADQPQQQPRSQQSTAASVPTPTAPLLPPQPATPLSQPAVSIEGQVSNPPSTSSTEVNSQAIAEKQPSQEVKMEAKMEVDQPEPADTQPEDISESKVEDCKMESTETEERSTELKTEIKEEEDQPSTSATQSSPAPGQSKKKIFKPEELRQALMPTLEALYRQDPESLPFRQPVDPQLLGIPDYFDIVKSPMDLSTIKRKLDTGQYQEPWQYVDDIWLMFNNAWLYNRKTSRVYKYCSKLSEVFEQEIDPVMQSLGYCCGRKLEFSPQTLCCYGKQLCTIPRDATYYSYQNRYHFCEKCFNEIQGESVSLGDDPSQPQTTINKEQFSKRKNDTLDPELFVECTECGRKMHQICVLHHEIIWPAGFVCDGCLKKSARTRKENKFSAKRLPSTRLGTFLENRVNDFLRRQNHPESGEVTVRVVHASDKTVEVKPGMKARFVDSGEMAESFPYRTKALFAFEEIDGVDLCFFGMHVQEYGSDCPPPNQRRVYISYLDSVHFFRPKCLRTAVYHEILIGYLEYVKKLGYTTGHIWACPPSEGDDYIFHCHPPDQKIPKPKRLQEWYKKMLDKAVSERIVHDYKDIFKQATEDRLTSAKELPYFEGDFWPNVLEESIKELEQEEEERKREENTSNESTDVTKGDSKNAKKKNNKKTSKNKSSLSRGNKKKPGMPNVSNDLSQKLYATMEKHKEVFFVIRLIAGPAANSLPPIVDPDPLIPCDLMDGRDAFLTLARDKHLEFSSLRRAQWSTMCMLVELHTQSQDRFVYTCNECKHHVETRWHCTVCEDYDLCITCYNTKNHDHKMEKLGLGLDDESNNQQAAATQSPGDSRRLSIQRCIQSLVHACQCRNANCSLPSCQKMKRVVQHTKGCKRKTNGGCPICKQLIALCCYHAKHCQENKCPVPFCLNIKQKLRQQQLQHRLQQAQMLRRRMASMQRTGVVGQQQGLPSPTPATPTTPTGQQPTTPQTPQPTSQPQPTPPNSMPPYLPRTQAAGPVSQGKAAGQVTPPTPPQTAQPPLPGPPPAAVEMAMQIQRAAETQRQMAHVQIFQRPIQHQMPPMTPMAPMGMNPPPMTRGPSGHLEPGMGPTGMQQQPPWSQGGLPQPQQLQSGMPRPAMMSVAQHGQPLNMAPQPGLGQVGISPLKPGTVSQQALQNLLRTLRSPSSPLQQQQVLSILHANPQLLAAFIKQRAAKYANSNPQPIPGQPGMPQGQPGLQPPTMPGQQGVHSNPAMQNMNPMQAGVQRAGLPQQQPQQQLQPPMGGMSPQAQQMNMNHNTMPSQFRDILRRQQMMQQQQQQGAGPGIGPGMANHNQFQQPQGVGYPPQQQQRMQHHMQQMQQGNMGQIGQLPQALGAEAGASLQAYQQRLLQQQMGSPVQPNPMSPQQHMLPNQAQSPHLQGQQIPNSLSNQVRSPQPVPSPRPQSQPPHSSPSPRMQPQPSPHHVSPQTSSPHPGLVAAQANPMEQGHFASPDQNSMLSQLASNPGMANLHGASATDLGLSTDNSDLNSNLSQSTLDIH

What all share (experiment): co-IP; endogenous proteins in lysates of PC9 and A549 cells (20 mmol/L Tris-HCl pH 8.0, 10 mmol/L NaCl, 1 mmol/L EDTA, 0.5% NP-40); antibody or control IgG overnight at 4 °C, Protein G Dynabeads, Western blot; cells with or without silencing of MED13L
(In western blotting, separated proteins are transferred to a membrane and probed.)

Experiment [1] concerns the target MED12 (human (endogenous in PC9 and A549)) (UniProt Q93074).
In experiment [2] the target is T1, MED23 (human (endogenous in PC9 and A549)) (UniProt Q9ULK4).
T1 sequence: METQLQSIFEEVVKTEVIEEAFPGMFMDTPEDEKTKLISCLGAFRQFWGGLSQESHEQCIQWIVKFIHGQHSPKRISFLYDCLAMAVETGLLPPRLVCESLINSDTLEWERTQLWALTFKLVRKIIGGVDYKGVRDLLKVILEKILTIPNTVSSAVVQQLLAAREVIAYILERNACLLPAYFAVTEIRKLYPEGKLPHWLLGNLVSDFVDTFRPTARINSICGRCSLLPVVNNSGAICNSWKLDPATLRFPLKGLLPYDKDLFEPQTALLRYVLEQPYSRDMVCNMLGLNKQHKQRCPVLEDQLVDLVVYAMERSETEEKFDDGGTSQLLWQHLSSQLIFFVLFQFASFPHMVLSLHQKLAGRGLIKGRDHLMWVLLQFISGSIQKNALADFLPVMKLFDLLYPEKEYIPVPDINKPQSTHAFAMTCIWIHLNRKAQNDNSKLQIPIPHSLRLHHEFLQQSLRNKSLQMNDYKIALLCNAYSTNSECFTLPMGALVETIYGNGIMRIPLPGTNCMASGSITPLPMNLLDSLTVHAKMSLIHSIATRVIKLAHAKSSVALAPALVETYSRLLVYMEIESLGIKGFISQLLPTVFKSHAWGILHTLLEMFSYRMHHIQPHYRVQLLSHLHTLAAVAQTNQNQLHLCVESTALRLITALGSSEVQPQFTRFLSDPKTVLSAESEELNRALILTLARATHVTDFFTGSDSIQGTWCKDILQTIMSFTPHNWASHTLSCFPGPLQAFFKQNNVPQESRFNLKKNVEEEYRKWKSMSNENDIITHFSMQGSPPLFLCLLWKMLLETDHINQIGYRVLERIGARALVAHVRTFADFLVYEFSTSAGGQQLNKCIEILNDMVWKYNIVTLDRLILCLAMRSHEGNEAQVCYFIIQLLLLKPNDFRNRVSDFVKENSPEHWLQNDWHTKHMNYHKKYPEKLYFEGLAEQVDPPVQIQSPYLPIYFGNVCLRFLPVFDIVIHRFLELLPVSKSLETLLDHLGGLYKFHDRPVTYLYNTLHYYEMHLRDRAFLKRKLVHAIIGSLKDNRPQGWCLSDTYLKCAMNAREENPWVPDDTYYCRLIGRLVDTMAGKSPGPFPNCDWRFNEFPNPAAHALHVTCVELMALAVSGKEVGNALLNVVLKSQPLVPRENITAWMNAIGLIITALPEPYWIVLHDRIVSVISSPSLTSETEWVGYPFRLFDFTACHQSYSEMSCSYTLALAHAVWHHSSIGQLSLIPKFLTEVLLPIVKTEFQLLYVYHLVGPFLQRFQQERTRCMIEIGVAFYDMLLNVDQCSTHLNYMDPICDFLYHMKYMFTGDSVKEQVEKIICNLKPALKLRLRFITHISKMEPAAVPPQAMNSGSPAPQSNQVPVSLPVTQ

Experiment [3] addresses MED13L (human (endogenous in PC9 and A549)) (UniProt Q71F56).

These are yes or no findings as the source states them, for the method shown. Binding seen in cells or lysates may run through a third protein. Some results given as binding are weak or reduced against the parent protein; the word gives no strength.

As to CCNC (from UniProt P24863 1-283), the binding result in experiment [1] is on record as “binds”.
For MED1 (from UniProt Q15648 1-1581), in experiment [2], the binding entry was “binds”.
In the case of “acetyltransferase P300 (from UniProt Q09472 1-2414)”, the binding result in experiment [3] and in experiment [1] was “binds” throughout.
